Assay [1] concerns the target T1, TCMP‐2::nYFP (rBiFC, pBiFCt‐2in1) (tomato (Solanum lycopersicum)) (UniProt P14903).
T1 sequence: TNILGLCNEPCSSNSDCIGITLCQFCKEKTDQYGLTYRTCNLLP
Description: split reporter; ratiometric BiFC (pBiFCt-2in1, mRFP as reference) in agroinfiltrated N. tabacum epidermal cells; complemented YFP vs. RFP ratio, seven independent cells for each combination.

Assay [2] has as its target T2, nYFP::TCMP‐2 (rBiFC, pBiFCt‐2in1) (tomato (Solanum lycopersicum)) (UniProt P14903).
T2 sequence: T1 sequence
Described as above.

Assay [3] has as its target T3, mature TCMP‐2 protein fused to the GAL4 DNA‐binding domain (pGBKT7‐BD) (tomato (Solanum lycopersicum)) (UniProt P14903).
T3 sequence: T1 sequence
The assay is described as follows: two-hybrid; Matchmaker Gold system; bait GAL4 BD fusion in Y2H Gold, prey AD fusions in Y187, mated; 30°C for 3 days; selection on SD/-Leu/-Trp/-His/-Ade/X-Gal/Aureobasidin A plus 10 mM 3-AT.

Assay [4] deals with T4, mature TCMP‐2 fused with the N‐terminus of YFP (nYFP), pCAMBIA1300 (tomato (Solanum lycopersicum)) (UniProt P14903).
T4 sequence: T1 sequence
The assay is described as follows: split reporter; BiFC with nYFP and cYFP fusions (pCAMBIA1300), transient co-infiltration of Nicotiana tabacum leaves; confocal microscopy 36-48 hr later.

This passage reports binding results from paper PMC7648202.

These are yes or no findings as the source states them, for the method shown. Binding can be weak; no strength is given. Tags and fused reporters may be left off the sequences shown. For some assays here: In cells and extracts the contact can be indirect.

“BBX16::cYFP (rBiFC, pBiFCt‐2in1) (tomato (Solanum lycopersicum))”: the binding result in assay [1] and in assay [2] was “binds weakly” in each case.

“SlBBX16 full‐length ORF fused to the Gal4‐activation domain (pGADT7‐AD) (tomato (Solanum lycopersicum))”: in assay [3], the binding result is recorded as “binds”.

For “SlBBX16 fused with the C‐terminus of YFP (cYFP), pCAMBIA1300 (tomato (Solanum lycopersicum))”, the binding entry in assay [4] is reported as “binds”.

For the substance “SlCO1 full‐length ORF fused to the Gal4 activation domain (pGADT7‐AD) (tomato (Solanum lycopersicum))”, in assay [3], the binding result is recorded as “no binding”.
